# The list shows a part of the results, in another mix than the full data. At the low end of the ranking, values are background and their order means little.
# Target: T1, ETV3L (UniProt Q6ZN32)
# T1 sequence: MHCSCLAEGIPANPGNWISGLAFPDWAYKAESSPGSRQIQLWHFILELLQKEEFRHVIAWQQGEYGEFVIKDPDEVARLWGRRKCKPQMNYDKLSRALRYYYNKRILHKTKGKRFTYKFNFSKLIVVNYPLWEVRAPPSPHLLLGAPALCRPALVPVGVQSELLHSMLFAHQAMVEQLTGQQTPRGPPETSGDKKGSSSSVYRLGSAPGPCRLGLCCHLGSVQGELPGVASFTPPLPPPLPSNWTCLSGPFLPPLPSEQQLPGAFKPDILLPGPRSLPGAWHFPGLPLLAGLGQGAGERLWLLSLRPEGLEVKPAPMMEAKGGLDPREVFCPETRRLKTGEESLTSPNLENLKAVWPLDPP
# Experiment: DAPPL (digital affinity profiling via proximity ligation, sequencing)
# Details: 10 mM Tris-HCl pH 7.5, 50 mM NaCl, 1 mM DTT, 4% glycerol, room temperature, 30 min; GST-TFs on glutathione beads, 16-mer random dsDNA library, 0.1% …; high values mean tight binding; double strand, one strand shown; scale: fold enrichment (6-mer frequency, TF over GST control)
row,Sequence,binding signal
1,GTCGTT,0.747
2,GCCATG,0.793
3,GGTGAC,0.759
4,TTGAGT,0.64
5,CGTCGG,0.449
6,GGTGGG,0.695
7,CGGGAC,0.511
8,ATCGGC,0.689
9,TGGCGG,0.811
10,GTGTGG,0.632
11,TCAGAG,0.711
12,AGACTG,0.516
13,CGGACA,0.795
14,AGCGGA,0.758
15,TGTGAG,0.339
16,GCGGGT,0.603
17,GAGTTA,0.603
18,GCGGAC,0.753
19,GTAGAG,0.573

row,Sequence,binding signal
1,TGAGGT,0.667
2,GCAAGA,0.867
3,TTGTGA,0.777
4,TCAGGT,0.829
5,GGACAC,0.743
6,ACTGTG,0.567
7,TGGGAG,0.46
8,GACGGC,0.748
9,CCAAGG,0.946
10,ACGAGA,0.701
11,GCTGGA,0.932
12,GGGGCC,0.577
13,CAAGGC,0.817
14,CGAGCG,0.962
15,GTAAGA,0.779
16,AGGCGG,0.259
17,GATCGG,0.5
18,CGGGAA,0.725
19,CAGAGC,0.814

# Reformatted: results already given.
row	Sequence	binding signal
14	AGCGGA	0.758
15	TGTGAG	0.339

# Reference: paper PMC7862700
